The source of these data is patent US20190153103A1.

Amino acid sequences for entries named in this document (tags omitted). A change or cut given only in a name is not applied to a line headed by its entry.
UniProt O00238: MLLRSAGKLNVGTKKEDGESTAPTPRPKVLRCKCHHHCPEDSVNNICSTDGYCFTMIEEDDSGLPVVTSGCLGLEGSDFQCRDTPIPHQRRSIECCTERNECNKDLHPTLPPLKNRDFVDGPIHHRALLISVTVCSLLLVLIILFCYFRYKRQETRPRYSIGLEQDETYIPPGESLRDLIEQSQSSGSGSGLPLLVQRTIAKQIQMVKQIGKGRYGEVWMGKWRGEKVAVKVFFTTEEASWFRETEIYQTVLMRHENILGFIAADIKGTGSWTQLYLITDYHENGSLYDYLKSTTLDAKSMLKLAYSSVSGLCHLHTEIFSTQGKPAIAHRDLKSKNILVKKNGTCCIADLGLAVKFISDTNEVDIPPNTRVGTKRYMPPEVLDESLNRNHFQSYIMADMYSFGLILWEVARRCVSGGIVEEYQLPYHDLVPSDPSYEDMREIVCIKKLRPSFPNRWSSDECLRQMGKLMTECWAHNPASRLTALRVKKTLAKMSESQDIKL

The target in experiment [1] is human BMPR1B coated on MSD plates (construct not stated) (human) (UniProt O00238). The experiment is described as follows: MSD ELISA, antibody titrated, BMP2 blocked.
For experiment [2] the target is unchanged. The experiment is described as follows: MSD ELISA, antibody titrated, BMP4 blocked.
In the next experiment the target is T1, rat-his.
T1 sequence: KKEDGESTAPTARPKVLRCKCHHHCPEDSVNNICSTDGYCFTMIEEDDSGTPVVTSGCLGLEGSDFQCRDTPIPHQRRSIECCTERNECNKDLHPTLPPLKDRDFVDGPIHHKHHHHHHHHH
The experiment is described as follows: Biacore.

Substitutions are numbered along the chain they refer to. These are yes or no findings as the source states them, for the method shown. Some binding calls cover weakened binding; strength is not graded here. For part of these data: Sequences can lack the tags named with a protein.

B1: SC91.1 (murine anti-BMPR1B antibody) (antibody, V domains shown)
VH: QVQLQQPGAELVKPGASVKLSCKASGYTFTSYWMQWVKQRPGQGLEWIGEIDPSDNYTLYNQKFKGKATLTVDTSSSTAYMQLSSLTSEDSAVYYCARFGYYVDYWGLGTTLTVSS
VL: DVVMTQTPLSLPVSLGDQASIFCRSSQSLVHSTGNTYLHWYLQKPGQSPKLLIYKVSNRFSGVPDRFSGSGSGTDFTLKISRVEAEDLGVYFCSQSTHVPFTFGSGTKLEIK
Consider B1, for which the binding result in experiment [1] and in experiment [2] was “binds” throughout.

B2: SC91.19 (antibody, V domains shown)
VH: QIQLVQSGPELKKPGETVKISCKASGYTFTTYGMNWVKQAPGKGLKWMGWINTYSGVPSSANDFKGRFAFSLETSASTAYLQINNLKNEDTATYFCARSELRNWYFDVWGTGTTVTVSS
VL: SFVMTQTPKFLLVSAGDRVTITCKASQSVGNDVAWYQQKPGQSPKLLIYYASNRYTGVPDRFTGSGYGTDFTFTISTVQAEDLAVYFCQQDYSSPFTFGSGTKLEMK
For B2, the binding entry in experiment [2] was “binds”.

B3: SC91.111 (antibody, V domains shown)
VH: B2 VH with F29L, S59A, S60Y, N62D, L86F
VL: B2 VL with S28N, V29M, N31H, D32N, M106I
Consider B3, for which, in the experiment with rat-his, the binding result was “binds”.

B4: SC91.9 (murine anti-BMPR1B antibody) (antibody, V domains shown)
VH: QVQLQQPGAELVKPGASVKLSCKASGYTFISYWMHWVKQRPGQGLEWIGMIHPNSGSTNYNESFKSKATLTVDKSSSTAYMQLSSLTSEDSAVYYCARDLLIATVVVTPYFAYWGQGTILTVSS
VL: DIQMTQTTSSLSASLGDRVTISCRASQDISNFLNWYQQKPDGTIKFLIYYTSRLHSGVPSRFSGSGSGTDYSLTIRNLEQEDIATYFCQQGNTLPYTFGGGTKLEIK
For the molecule B4, the binding result in experiment [1] and in experiment [2] was “binds” each time.
